Test results as given in PubChem BioAssay AID1307 (SRMLSC, 2008).
Fewer than 10 of roughly 1,200 compounds were called active.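 How the source made its calls: active means inhibition reaching a set limit at one or more tested concentrations; inactive means inhibition under that limit at every dose.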 The list shows a part of the results. Results with a measured potency or affinity are listed apart.

assay: RAM pathway signaling blockade in S. cerevisiae – dose response (AID 1307);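 further: 0% = DMSO vehicle wells and 100% = 10 µM 1-NA-PP1 control; higher inhibition means more yeast growth since RAM block rescues cells from 5-FOA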; details: S. cerevisiae RAM network URA3 reporter, 5-FOA growth OD615, stronger effect = higher value, yeast express analog-sensitive mutant Cbk1 kinase; at 100 µM unless noted

Max inhibition, inactive:
COc1cccc(-c2nnc(SCC(=O)Nc3ccc(OC)c(OC)c3)n2N)c1 6.24%
CCC(=O)Oc1ccc(C(=O)Nc2cccc(C(=O)c3ccccc3)c2)cc1 3.36% [at 0.196 µM]
Cc1oc(-c2cc(Cl)cc(Cl)c2)cc1C(=O)NCCc1ccccc1 4.69% [at 50 µM]
CC(C)OC(=O)c1ccc(COC(=O)c2cccc(-c3nnc(-c4ccccc4)o3)c2)cc1 3.36% [at 25 µM]
CN(C)S(=O)(=O)c1ccc2[nH]cc(/C=C/c3nc4ccccc4c(=O)n3-c3ccccc3)c2c1 10.9%
CCOC(=O)CSc1nc2ccccc2c(=O)n1C1CCCC1 2.91% [at 12.5 µM]
CCCCCc1c2c(cc(O)c1C(=O)O)OC(=O)c1c(cc(OC)cc1C(=O)CCCC)O2 6.94%
COc1ccc(CC(=O)Nc2cc3oc4ccccc4c3cc2OC)cc1 3.11% [at 1.563 µM]
O=C(CSc1nc2cc(Cl)ccc2s1)N1CCCc2ccccc21 2.81%
O=C(CNC(=S)N(Cc1ccccc1)Cc1ccccc1F)NCCc1ccc(Cl)cc1 3.65%
CCOc1ccccc1NC(=O)c1ccccc1-c1nc(-c2ccccc2)no1 8.12%
COc1ccc(N(CC(=O)NCc2ccc(C)cc2)S(=O)(=O)c2c(C)nn(C)c2C)cc1 4.1%
Cc1ccc(NC(=O)COc2ccc(CCO)cc2-n2nc3ccccc3n2)cc1C 11.1%
O=C(COC(=O)c1ccccc1Nc1ccc(SC(F)F)cc1)NC1CC1 9.6%
O=[N+]([O-])c1ccc2oc(-c3cccc(O)c3)nc2c1 9.8%
CCC(C)NS(=O)(=O)c1ccc(S(=O)(=O)N(CCc2ccc(OC)c(OC)c2)Cc2cccs2)cc1 (centres undefined) 1.46% [at 3.125 µM]
COc1ccc(N(CC(=O)NCCSCc2ccco2)S(=O)(=O)c2ccc(C)cc2)cc1 4.74% [at 50 µM]
Cc1ccc(-c2cccc(OC(=O)c3ccccc3F)c2)cc1 2.7% [at 6.25 µM]
N#C/C(=C\c1cn(CCOc2ccccc2)c2ccccc12)C(=O)NCC1CCCO1 (centres undefined) 2.19% [at 0.196 µM]
CCN(CC)S(=O)(=O)c1ccc(NC(=O)COC(=O)c2ccc(Br)o2)cc1 3.64% [at 50 µM]
CCCCc1ccc(/C=C2\C(=O)c3ccccc3C(O)=C2C(=O)OCC)cc1 7.44%
COc1ccc(S(=O)(=O)N(Cc2ccccc2)Cc2nc(-c3ccccc3)no2)cc1 1.63% [at 25 µM]
CN(C)S(=O)(=O)c1cc(NC(=O)COC(=O)Cc2ccc(Br)cc2)ccc1Cl 1.06%
CCCCn1c(=O)c(CCC(=O)OC(C)C(=O)Nc2cccc(Cl)c2Cl)nc2ccccc21 (centres undefined) 1.43% [at 6.25 µM]
O=C(CN(Cc1cccs1)S(=O)(=O)c1ccc(S(=O)(=O)NC2CCCCC2)cc1)Nc1ccccc1 3.89% [at 0.196 µM]
Cc1ccc(Cl)cc1N1CCN(S(=O)(=O)c2ccc3[nH]c(=O)c(=O)[nH]c3c2)CC1 4.39%
COc1ccccc1NC(=O)c1ccc(NC(=O)COC(=O)CCC2CCCC2)cc1 3.54%
COc1ccccc1-c1nc(C#N)c(N2CCC(Cc3ccccc3)CC2)o1 5.54%
COc1ccc(-c2nnc(SC(C)C(=O)Nc3cccc(Cl)c3)o2)cc1 (centres undefined) 1.74% [at 25 µM]
CO/N=C/C(=N\Nc1ccc(OC)cc1)C(=O)c1ccc(OC)cc1 3.18%
CCOc1ccc2nc(SCCNS(=O)(=O)c3ccccc3)sc2c1 2.88% [at 50 µM]
O=C(OC(c1ccc(NS(=O)(=O)c2ccccc2)cc1)(C(F)(F)F)C(F)(F)F)c1ccccc1 2.02% [at 0.196 µM]
COc1ccc(NC(=O)c2sccc2SCc2cccc(C(F)(F)F)c2)cc1 2.59%
O=C(NCCn1cc(SCc2ccc(F)cc2)c2ccccc21)c1ccccc1F 1.78% [at 1.563 µM]
N#Cc1nc(COc2ccccc2)oc1N1CCN(c2cccc(Cl)c2)CC1 3.36% [at 50 µM]
O=C(/C=C/c1cccc([N+](=O)[O-])c1)NCCSCc1cccc(Cl)c1 1.76%
COc1ccc(S(=O)(=O)NCCSCc2cccc(C)c2)cc1Br 1.08% [at 50 µM]
COc1ccc(-c2ccc(-c3noc(C(C)C)n3)c(OC)n2)cc1 3.31%
Cc1c(NC(=S)NC(=O)Cc2ccccc2)cccc1C(=O)O 2.43% [at 0.196 µM]
CCN(CC)S(=O)(=O)c1cccc(-c2nnc(SCCCC(=O)c3ccc(F)cc3)o2)c1 1.47% [at 0.782 µM]
CCOC(=O)c1ccc(COC(=O)c2ccc3c(c2)-c2ccccc2C3=O)cc1 5.23% [at 25 µM]
Cc1ccc(S(=O)(=O)c2c(C)cc(C)nc2Oc2cccc(C(F)(F)F)c2)cc1 2.36%
CCOC(=O)C(C)(C)Sc1nc2c(cnn2-c2ccc(Cl)cc2)c(=O)[nH]1 4.04%
CC(C)OC(=O)CC(=O)CSc1nc(-c2ccc(F)cc2)cc(-c2ccccc2)c1C#N 4.57%
C/C(=N\NC(=S)NCc1ccccc1)c1ccc(C(C)(C)C)cc1 4.82%
O=C(COc1ccc2c(c1)C(=O)CC1(CCCCC1)O2)NCc1ccccc1 5.43%
COC(=O)c1ccc(Cl)cc1NC(=O)/C=C/c1ccc(C)o1 4.37% [at 12.5 µM]
COc1ccc(N(C)S(=O)(=O)c2cccc(C(=O)NCC3CCCCC3)c2)cc1 2.31% [at 1.563 µM]
COc1ccc(Oc2ccc(/C=C/C(=O)c3cccc(OC)c3)cc2[N+](=O)[O-])cc1 2.94% [at 12.5 µM]
Cc1ccc(-c2ccc(C(=O)NCc3ccccc3)o2)c2ccccc12 3.65%
CCOC(=O)c1cnc(-c2ccccc2)nc1Oc1ccc(Cl)cc1 3.29%
Fc1ccc(-n2c(Cc3ccccc3)nnc2SCc2nc(-c3ccc(Cl)cc3)no2)cc1 1.4% [at 25 µM]
O=C(CSc1nc(-c2ccccc2)cs1)Nc1cccc([N+](=O)[O-])c1 4.65% [at 25 µM]
CCCn1c(=O)c(C(=O)Nc2ccccc2C(=O)OC)c(O)c2ccccc21 2.56% [at 1.563 µM]
CC(NC(=O)COC(=O)/C(=C/c1cccs1)c1cccs1)c1ccccc1 (centres undefined) 3.34% [at 1.563 µM]
COc1ccccc1-c1ccc(/C=C2/C=C(CC(C)C)OC2=O)o1 4.92%
O=C(CNS(=O)(=O)c1ccc2ccccc2c1)OCc1csc(-c2ccccc2)n1 4.7% [at 0.782 µM]
CCCOc1ccc(-c2nn(-c3ccccc3)cc2/C=C2\SC(N)=NC2=O)cc1C 16.7%
CSc1ccc(Cl)c(C(=O)NCCOc2cc(C)ccc2C(C)C)c1 2.43% [at 50 µM]
Cc1ccc(NC(=O)c2ccccc2F)cc1S(=O)(=O)N1CCCCCC1 0.96% [at 3.125 µM]
CC(C)N(Cc1nc(-c2ccc(Cl)cc2)no1)C(=O)/C=C/c1ccccc1 2.58% [at 6.25 µM]
CCOC(=O)C1CCN(S(=O)(=O)C(F)(F)c2nc3ccccc3s2)CC1 2.1% [at 0.391 µM]
N#Cc1nc(COc2cccc(Cl)c2)oc1N1CCN(c2ccccc2)CC1 4.45%
O=c1c(-c2nnc(SCc3ccc(Cl)cc3Cl)o2)cccn1Cc1ccccc1 1.93% [at 12.5 µM]
Cc1ccc(CSc2nnc(-c3ccc4c(c3)OCO4)o2)cc1 3.72% [at 1.563 µM]
CCN=C1S/C(=C\c2cc(OCC)c(O)cc2Br)C(=O)N1CC 11.8%
Cc1ccc(N=C(NOCc2ccc(Cl)cc2Cl)c2nonc2N)c(C)c1 5.27%
CC1CCc2c(sc3nc(CSc4n[nH]c(N)n4)[nH]c(=O)c23)C1 (centres undefined) 5.55% [at 0.782 µM]
Cc1ccc(C(=O)O/N=C\c2ccc(N3CCCCC3)c([N+](=O)[O-])c2)cc1 2.11%
COc1ccc(C2CC(c3ccccc3)=NN2c2ccc(/C=N/NC(=O)c3ccncc3)cc2)cc1 (centres undefined) 9.95%
O=C(OCC#CCSc1nnc(-c2ccc(Br)cc2)o1)c1cccs1 3.16% [at 12.5 µM]
Cc1ccc(-n2ncc3c(SCc4ccccc4)ncnc32)cc1 4.44% [at 50 µM]
CCC(C)N1C(=O)/C(=C/c2c(NCCCOC(C)C)nc3c(C)cccn3c2=O)SC1=S (centres undefined) 2.83%
Cc1cccc(C)c1OC1(c2ccccc2)OC(=O)c2ccccc21 (centres undefined) 2.48%
CCCOC(=O)c1ccc(Oc2c(-c3ccc(OCC)cc3O)n[nH]c2C)cc1 6.49%
CCOC(=O)CCCSc1nnc(CCCCCN2C(=O)c3cccc4cccc(c34)C2=O)o1 1.53% [at 0.391 µM]
O=C(C1CC1)N1CCc2cc(S(=O)(=O)NCCC3=CCCCC3)ccc21 2.7% [at 0.782 µM]
Cc1cc(C(=O)CCl)c(C)n1CCc1ccc(Cl)cc1 5.29% [at 50 µM]
COc1ccc(Cc2nc(-c3ccc(-n4cccc4)cc3)no2)cc1OC 5.67%

Arranged by count of non-hydrogen atoms (falling): some entries from above.
Max inhibition, inactive:
CCC(C)NS(=O)(=O)c1ccc(S(=O)(=O)N(CCc2ccc(OC)c(OC)c2)Cc2cccs2)cc1 (centres undefined) 1.46% [at 3.125 µM]
O=C(OC(c1ccc(NS(=O)(=O)c2ccccc2)cc1)(C(F)(F)F)C(F)(F)F)c1ccccc1 2.02% [at 0.196 µM]
Fc1ccc(-n2c(Cc3ccccc3)nnc2SCc2nc(-c3ccc(Cl)cc3)no2)cc1 1.4% [at 25 µM]
COc1ccc(N(CC(=O)NCc2ccc(C)cc2)S(=O)(=O)c2c(C)nn(C)c2C)cc1 4.1%
Cc1ccc(NC(=O)COc2ccc(CCO)cc2-n2nc3ccccc3n2)cc1C 11.1%
O=C(CNS(=O)(=O)c1ccc2ccccc2c1)OCc1csc(-c2ccccc2)n1 4.7% [at 0.782 µM]
Cc1ccc(Cl)cc1N1CCN(S(=O)(=O)c2ccc3[nH]c(=O)c(=O)[nH]c3c2)CC1 4.39%
COc1ccc(NC(=O)c2sccc2SCc2cccc(C(F)(F)F)c2)cc1 2.59%
COc1ccc(Cc2nc(-c3ccc(-n4cccc4)cc3)no2)cc1OC 5.67%
CCOC(=O)C(C)(C)Sc1nc2c(cnn2-c2ccc(Cl)cc2)c(=O)[nH]1 4.04%
Cc1cccc(C)c1OC1(c2ccccc2)OC(=O)c2ccccc21 (centres undefined) 2.48%
C/C(=N\NC(=S)NCc1ccccc1)c1ccc(C(C)(C)C)cc1 4.82%
Cc1ccc(CSc2nnc(-c3ccc4c(c3)OCO4)o2)cc1 3.72% [at 1.563 µM]
COC(=O)c1ccc(Cl)cc1NC(=O)/C=C/c1ccc(C)o1 4.37% [at 12.5 µM]
Cc1cc(C(=O)CCl)c(C)n1CCc1ccc(Cl)cc1 5.29% [at 50 µM]
O=[N+]([O-])c1ccc2oc(-c3cccc(O)c3)nc2c1 9.8%

2 neighbouring records from above:
Max inhibition, inactive:
O=C(CNC(=S)N(Cc1ccccc1)Cc1ccccc1F)NCCc1ccc(Cl)cc1 3.65%
CCOc1ccccc1NC(=O)c1ccccc1-c1nc(-c2ccccc2)no1 8.12%
